Experimental findings from article PMC5856207 are described below.

Chains of the proteins cited; added tags and fusions are not shown. Lines headed by an entry give the natural chain unless they say otherwise; changes in a name come on top. A line that says so, or that is headed by a name, gives the form on record, which may keep a tag or linker. Residues count along the entry.
T-E26 (P01589, form named): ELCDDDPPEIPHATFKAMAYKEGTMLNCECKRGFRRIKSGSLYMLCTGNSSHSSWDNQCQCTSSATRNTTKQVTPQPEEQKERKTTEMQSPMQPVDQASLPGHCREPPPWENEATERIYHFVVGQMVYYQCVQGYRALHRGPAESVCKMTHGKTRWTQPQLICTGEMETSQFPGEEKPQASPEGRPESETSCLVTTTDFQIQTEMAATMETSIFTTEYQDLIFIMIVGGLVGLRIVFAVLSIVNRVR
T-E39 (P01589, form named): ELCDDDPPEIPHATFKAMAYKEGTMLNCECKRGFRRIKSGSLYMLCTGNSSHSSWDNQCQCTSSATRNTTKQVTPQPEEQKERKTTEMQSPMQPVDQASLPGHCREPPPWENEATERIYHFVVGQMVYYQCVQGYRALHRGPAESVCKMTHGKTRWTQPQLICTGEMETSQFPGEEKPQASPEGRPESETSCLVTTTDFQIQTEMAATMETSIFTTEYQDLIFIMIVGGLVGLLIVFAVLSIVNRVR
UniProt P04234, residues 22-171: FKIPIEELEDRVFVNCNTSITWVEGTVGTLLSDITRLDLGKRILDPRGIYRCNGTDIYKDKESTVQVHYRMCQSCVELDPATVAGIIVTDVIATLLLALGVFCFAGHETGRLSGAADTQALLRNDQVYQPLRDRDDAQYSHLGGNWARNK

Experiment [1] deals with T-E26 (not stated | HIV-1) (UniProt P01589). Briefly: co-IP; HeLa cells co-transfected with a Tac chimeric construct and the δ chain of the CD3 receptor fused to β-galactosidase; Tac protein immunoprecipitated from the lysate with protein A-agarose beads coated with 7G7 antibodies; co-precipitated β-galactosidase activity revealed with Chlorophenol Red-β-D-galactopyranoside (absorbance at 600 nm), percentage of β-galactosidase immunoprecipitated.

Experiment [2] concerns the target T-E39 (not stated | HIV-1) (UniProt P01589). Described as above.

Results are given in words; binding and its absence hold for the method and conditions named. In cells and extracts the contact can be indirect. Some entries that bind do so weakly or less than the wild type.

Turning to “δ chain of the CD3 receptor fused to the β-galactosidase (from UniProt P04234 22-171)”, the binding entry in experiment [1] is on record as “binds”; in experiment [2], “no binding”.
